Results on one substance are retold here after publication PMC4263151.

By UniProt entry, the sequences of proteins in these tests, tags left out. Where a name states a change or a piece, a line headed by the entry shows the natural chain unless it says otherwise.
UniProt Q00839: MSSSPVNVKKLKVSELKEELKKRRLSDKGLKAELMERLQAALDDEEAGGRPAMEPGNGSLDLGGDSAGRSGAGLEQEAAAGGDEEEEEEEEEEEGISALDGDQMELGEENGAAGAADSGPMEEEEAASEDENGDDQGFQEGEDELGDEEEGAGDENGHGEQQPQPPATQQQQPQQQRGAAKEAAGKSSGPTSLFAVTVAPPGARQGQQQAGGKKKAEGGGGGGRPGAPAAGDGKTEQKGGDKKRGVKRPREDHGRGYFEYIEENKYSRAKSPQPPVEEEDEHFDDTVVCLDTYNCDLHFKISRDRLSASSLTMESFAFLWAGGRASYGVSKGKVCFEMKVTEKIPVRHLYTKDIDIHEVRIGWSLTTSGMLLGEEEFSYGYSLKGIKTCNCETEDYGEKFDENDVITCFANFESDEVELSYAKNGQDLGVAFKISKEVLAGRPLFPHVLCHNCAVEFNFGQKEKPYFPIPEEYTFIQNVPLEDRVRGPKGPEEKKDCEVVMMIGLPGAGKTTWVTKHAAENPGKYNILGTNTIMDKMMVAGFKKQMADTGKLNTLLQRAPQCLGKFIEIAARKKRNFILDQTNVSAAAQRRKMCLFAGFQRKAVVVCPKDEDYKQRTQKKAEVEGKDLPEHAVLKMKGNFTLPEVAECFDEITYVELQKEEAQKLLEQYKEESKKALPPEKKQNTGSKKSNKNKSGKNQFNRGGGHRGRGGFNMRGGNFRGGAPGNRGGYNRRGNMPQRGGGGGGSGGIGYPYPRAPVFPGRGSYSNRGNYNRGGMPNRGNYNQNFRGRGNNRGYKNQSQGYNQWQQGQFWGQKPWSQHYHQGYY
UniProt P35226: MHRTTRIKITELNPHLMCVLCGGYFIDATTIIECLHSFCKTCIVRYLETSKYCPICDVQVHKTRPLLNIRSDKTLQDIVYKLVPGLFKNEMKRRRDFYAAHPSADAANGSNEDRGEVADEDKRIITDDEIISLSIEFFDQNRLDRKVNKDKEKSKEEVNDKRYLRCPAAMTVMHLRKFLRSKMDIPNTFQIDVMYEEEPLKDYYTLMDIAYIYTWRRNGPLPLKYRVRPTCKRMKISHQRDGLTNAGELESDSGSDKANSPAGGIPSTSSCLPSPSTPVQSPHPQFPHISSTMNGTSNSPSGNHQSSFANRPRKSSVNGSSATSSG

Results are given in words; binding and its absence hold for the method and conditions named. In cells and extracts the contact can be indirect. A result given as binding can be weak or reduced; the word gives no strength.

Assay [1] deals with FLAG-tagged SAFAΔRGG (RNA-binding-deficient mutant) (UniProt Q00839). In words: co-IP; lysates of HEK293 cells overexpressing FLAG-tagged wild-type or mutant SAFA; IP with antibody to FLAG, blots for FLAG, BMI1 and EZH2; ratios by densitometry.
For assay [2], the target named is FLAG-tagged SAFAΔSAF (DNA-binding-deficient mutant) (UniProt Q00839). The assay is described as above.

Turning to “BMI1, endogenous in HEK293 cells (from UniProt P35226 1-326)”, the binding entry in assay [1] and in assay [2] was “binds” in each case.
